# Some of the results follow. The main result of the screen is listed elsewhere. These columns were measured beside it and carry no call. Compounds called inactive in the main read-out are mostly missing here. Words in brackets tell the shape of the fitted curve; partial curves, single points and poor fits give uncertain potencies.
# Assay: IkB Signaling
# Settings: ABC-DLBCL IkBa-CBG/CBR dual luciferase ratio (green luciferase fused to IkBa over red control in OCI-Ly3 lymphoma cells), 4 h
# Outline: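 Curves were fitted separately to fusion (green), unfused (red) and ratio luminescence, then classed by r2, magnitude and activity. Cells: OCI-Ly3, 4 h compound plus doxycycline at 37C; 10 uM MG-132 defined full response.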
# [1] = measured here: control luc red channel unless noted
structure (smiles),measurement,setting,value
COc1cc(CN(C(=O)COc2ccc(Br)cc2)c2ccccn2)cc(OC)c1OC,AC50,[1],"15.8 µM [falling, single point]"
O=C(Nc1ccc(-c2cc(C(F)(F)F)nn2-c2ccccc2)cc1)c1cccc(F)c1,AC50,[1],"10 µM [falling, partial curve]"
CCOC(=O)c1c(NC(=O)c2cc(CC)on2)sc(C)c1C,AC50,[1],"1 µM [rising, full curve]"
O=c1cc(CSc2ncn[nH]2)[nH]c2c(Cl)cccc12,AC50,[1],"0.398 µM [falling, partial curve]"
COc1ccc(OC)c(Nc2nc(-c3ccc(C)cc3)nc3ccccc23)c1,AC50,[1],"0.794 µM [falling, full curve, poor fit]"
O=C(CC1N=C2c3ccccc3N=C(SCc3ccc(Cl)cc3)N2C1=O)NCCc1ccccc1 (configuration not stated),AC50,[1],"39.8 µM [falling, single point]"
CCOc1ccc(C2c3c(-c4ccc(C)cc4)n[nH]c3C(=O)N2c2ccc(Cl)cc2)cc1 (configuration not stated),AC50,[1],"39.8 µM [falling, single point]"
CC1CCCN(C(=O)Cn2c(=O)oc3cc(S(=O)(=O)N4CCCCC4)ccc32)C1 (configuration not stated),AC50,[1],"25.1 µM [falling, single point]"
O=S(=O)(Nc1cccc(-c2nc3cccnc3s2)c1)c1ccc2c(c1)OCCO2,AC50,measured here: IkB-luc green channel,"15.8 µM [falling, partial curve]"
same,AC50,measured here: control luc red channel,"7.94 µM [falling, full curve, poor fit]"
COc1cccc(NC(=O)c2sc3nc(N4CCOCC4)c4c(c3c2N)CC(C)(C)OC4)c1,AC50,[1],"10 µM [falling, partial curve]"
COc1cc(NC(=O)C(CC(C)C)NS(=O)(=O)c2ccc3c(c2)CCCC(=O)N3)cc(OC)c1 (configuration not stated),AC50,[1],"20 µM [falling, partial curve]"
COc1ccc(CNC(=O)c2cc3c(-c4ccccc4F)nn(C)c3s2)c(OC)c1,AC50,[1],"10 µM [falling, partial curve]"
Cc1ccc(C)c(N2CCN(C(=O)c3cnc4c(-c5ccccc5)c(C)nn4c3C)CC2)c1,AC50,[1],"10 µM [falling, partial curve]"
COc1cccc(NC(=O)Cn2cc(C(=O)C3CCCCC3)c3ccccc32)c1,AC50,[1],"12.6 µM [falling, partial curve]"
CCOC(=O)c1c(NC(C)=O)c2c3c(sc2n1Cc1nc(-c2ccccc2OCC)oc1C)CCCC3,AC50,[1],"39.8 µM [falling, single point]"
COc1cccc(CNC(=O)CN2C(=O)N(c3cc(C)ccc3C)S(=O)(=O)c3ccccc32)c1OC,AC50,[1],"15.8 µM [falling, partial curve]"
Cc1ccc(C)c(CN2C(=O)c3ccccc3S(=O)c3ccc(C(=O)NCc4ccccc4Cl)cc32)c1 (configuration not stated),AC50,[1],"15.8 µM [falling, partial curve]"
O=c1onc2cnc3ccccc3n12,AC50,[1],"25.1 µM [rising, partial curve] [measured here: IkB-luc green channel]"
COc1cc(C)c(Cl)cc1S(=O)(=O)NCCc1c(C)[nH]c2ccccc12,AC50,[1],"25.1 µM [falling, single point]"
COc1ccc2c(c1)CCc1c(C(=O)N3CCCc4ccccc43)noc1-2,AC50,[1],"7.94 µM [falling, partial curve]"
Cc1nc2c(c(C)c1CCC(=O)Nc1cccc(C(F)(F)F)c1)c(=O)n(C)c(=O)n2C,AC50,[1],"20 µM [falling, partial curve]"
CC1CCCN(S(=O)(=O)c2cc3c(cc2Cl)NC(=O)CO3)C1 (configuration not stated),AC50,[1],"0.1 µM [falling, full curve]"
COc1ccc(C(=O)Nc2ccccc2C(=O)OCc2cc(=O)n3c4c(sc3n2)CCCC4)cc1,AC50,[1],"15.8 µM [rising, partial curve]"
COc1cc(OC)c(Nc2nc3ccc(C)cc3n3nnnc23)cc1Cl,AC50,[1],"7.94 µM [falling, partial curve]"
O=C(CCC(=O)N1CC2CCCN2c2ccccc21)NCc1ccccc1Cl (configuration not stated),AC50,[1],"31.6 µM [falling, partial curve]"
COCCCNC(=O)c1ccc2c(c1)N=C(C)c1c(C)ccc(C)c1S2,AC50,[1],"0.251 µM [rising, full curve]"
COc1ccc(N2CCN(c3ccc(-c4nc(-c5ccccc5C)no4)cc3[N+](=O)[O-])CC2)cc1,AC50,[1],"3.98 µM [falling, single point]"
O=S(=O)(c1cccc(-c2nnc(SCc3nc4ccccc4s3)o2)c1)N1CCOCC1,AC50,[1],"1.58 µM [falling, partial curve]"
Cc1ccc(-c2nnc(Nc3ccc(Br)cc3)c3ccccc23)cc1S(=O)(=O)N1CCOCC1,AC50,[1],"2 µM [falling, partial curve]"
COc1ccc(-n2c(=O)c3sc4ccccc4c3n(CC(=O)Nc3cccc(C)c3)c2=O)cc1,AC50,[1],"5.01 µM [falling, partial curve]"
Cc1ccc(NC(=O)C(Cc2ccccc2)NS(=O)(=O)c2ccc3c(c2)oc(=O)n3C)c(Cl)c1 (configuration not stated),AC50,[1],"25.1 µM [rising, single point]"
Cc1cccc(-n2c(SCc3cc(=O)n4ccsc4n3)nc3ccccc32)c1,AC50,[1],"20 µM [falling, partial curve]"
COc1ccccc1NC(=O)c1cc(S(=O)(=O)N(C)C2CCCCC2)ccc1F,AC50,[1],"20 µM [falling, partial curve]"
CCOC(=O)N1CCc2c(sc3c2c(=O)n(CCc2ccccc2)c(=O)n3Cc2cc(C)ccc2C)C1,AC50,[1],"10 µM [falling, partial curve]"
CCOc1ccccc1NC(=O)c1cn(C2CCCC2)c(=O)c2c1c1ccccc1n2C,AC50,[1],"7.94 µM [falling, partial curve]"
COc1ccccc1NC(=O)C1=C(C)Nc2nc(SCc3ccccc3)nn2C1c1ccccn1 (configuration not stated),AC50,[1],"0.316 µM [falling, full curve]"
CCN(CC)S(=O)(=O)c1ccc2c(c1)N(CC(=O)NCCc1ccc(OC)c(OC)c1)C(=O)CO2,AC50,[1],"39.8 µM [falling, partial curve, poor fit]"
CC1CCCCN1C(=O)CSc1nnc(-c2c[nH]c3ccccc23)o1 (configuration not stated),AC50,[1],"15.8 µM [falling, partial curve]"
Cc1cc(Nc2cc(F)ccc2C)nc(-n2nc(C)cc2C)n1,AC50,[1],"12.6 µM [falling, partial curve]"
COc1cc(NC(=O)Cn2nc3c(cc2=O)CC(C)CC3)cc(OC)c1OC (configuration not stated),AC50,[1],"0.2 µM [falling, full curve, poor fit]"
CN(C)S(=O)(=O)N(CC(=O)NCCSc1ccccc1)c1ccccc1,AC50,[1],"15.8 µM [falling, partial curve]"
Cc1c(C(=O)N2CCC(C)CC2)c(S(=O)(=O)Nc2ccc(OC(F)(F)F)cc2)c(C)n1C,AC50,[1],"39.8 µM [falling, single point]"
COc1ccc2[nH]cc(CCN=C(NC(=O)c3ccccc3C)Nc3nc(C)cc(C)n3)c2c1,AC50,[1],"10 µM [falling, partial curve, poor fit]"
O=C(Nc1ccc(C(F)(F)F)cc1)C(Cc1ccccc1)n1cccc1 (configuration not stated),AC50,[1],"31.6 µM [falling, partial curve]"
O=C(NCCCN1CCN(c2ccccc2F)CC1)c1ccc2nc(N3CCCCC3)sc2c1,AC50,[1],"20 µM [falling, partial curve]"
O=C(NCc1ccco1)C1CCN(C(=O)c2cc3sccc3n2Cc2ccc(F)cc2)CC1,AC50,[1],"15.8 µM [falling, partial curve]"
Cc1cc(NC(=O)c2ccc(NC(=O)CCS(=O)(=O)c3cccs3)cc2)ccc1Br,AC50,[1],"3.16 µM [falling, full curve]"
Cc1c(CCNC(=O)C(C)(C)C)sc2nc(-c3ccc(F)cc3)nn12,AC50,[1],"31.6 µM [falling, single point]"
COc1ccccc1NC(=O)C1=C(C)Nc2nc(SCc3ccccc3)nn2C1c1ccncc1 (configuration not stated),AC50,[1],"0.251 µM [falling, partial curve]"
COc1ccc(Cl)cc1NC(=O)CCn1c(=O)oc2ccccc21,AC50,[1],"39.8 µM [falling, single point]"
c1cc2c(cc1C1CCCCC1)c1c3n2CCN[C@H]3CCC1,AC50,[1],"31.6 µM [falling, partial curve]"
CCN(C(=O)c1cc2c(s1)-c1ccccc1OC2)c1cccc(C(F)(F)F)c1,AC50,[1],"31.6 µM [falling, single point]"
O=C(CSc1nccn1Cc1ccccc1)Nc1ccc2c(c1)OCCO2,AC50,[1],"1 µM [rising, single point]"
Cc1ccc(CNC(=O)Cn2cccc2C(=O)c2ccccc2C)cc1,AC50,[1],"15.8 µM [falling, partial curve]"
N#Cc1c[nH]n2c(NC3CCCC3)c(-c3ccc(Cl)cc3)nc12,AC50,[1],"31.6 µM [falling, single point]"
COc1ccc(C2N(c3cc(Cl)ccc3OC)C(=O)C3CCCN32)c(OC)c1 (configuration not stated),AC50,[1],"6.31 µM [rising, single point] [measured here: IkB-luc green channel]"
Cc1ccc(NS(=O)(=O)c2ccc(-c3cc(C)no3)cc2)c(Br)c1,AC50,[1],"7.94 µM [falling, partial curve]"
Cc1ccc(CCNC(=O)c2c(C)nn(-c3ccc(F)cc3)c2-n2cccc2)cc1,AC50,[1],"25.1 µM [falling, single point]"
CC1=C(C(=O)Nc2ccccc2)C(c2ccc(O)cc2)n2nc(SCc3ccccc3)nc2N1 (configuration not stated),AC50,[1],"7.94 µM [falling, single point]"
CCOc1ccccc1NC(=O)N1CCC2(CC1)Oc1ccccc1C(=O)N2Cc1ccccc1F,AC50,[1],"12.6 µM [falling, partial curve]"
CCOC(=O)N1CCN(S(=O)(=O)c2ccc(OCC)c(C)c2)CC1,AC50,[1],"12.6 µM [falling, partial curve]"

# Taken from the listing for reference:
structure (smiles),measurement,setting,value
CC1CCCN(S(=O)(=O)c2cc3c(cc2Cl)NC(=O)CO3)C1 (configuration not stated),AC50,[1],"0.1 µM [falling, full curve]"
COc1ccc(C(=O)Nc2ccccc2C(=O)OCc2cc(=O)n3c4c(sc3n2)CCCC4)cc1,AC50,[1],"15.8 µM [rising, partial curve]"
COc1cc(OC)c(Nc2nc3ccc(C)cc3n3nnnc23)cc1Cl,AC50,[1],"7.94 µM [falling, partial curve]"
O=C(CCC(=O)N1CC2CCCN2c2ccccc21)NCc1ccccc1Cl (configuration not stated),AC50,[1],"31.6 µM [falling, partial curve]"
COCCCNC(=O)c1ccc2c(c1)N=C(C)c1c(C)ccc(C)c1S2,AC50,[1],"0.251 µM [rising, full curve]"
